Laboratory results from article PMC3726599, “A Metabolically-Stabilized Phosphonate Analog of Lysophosphatidic Acid Attenuates Collagen-Induced Arthritis” (PLoS ONE, 2013).
Some entries of the source have several records that differ or are many. The other results are left out here. There may be further records. The records of an entry differ for a reason that is not stated; they may come from other doses, times, organisms or constructs than stated.

Assay: Mouse pharmacokinetics, plasma BrP-LPA by HPLC-MS/MS
Settings: 10 mg/kg i.p., female mice
Method: BrP-LPA, LPA species (C14:0, C16:0, C18:0, C18:1 and C20:4) and LPC species (C14:0, C16:0, C18:0, C18:1 and C20:0) were measured in plasma with HPLC-ESI/MS/MS using RSLCnano system (Ultimate 3000) coupled in-line with an LTQ Orbitrap XL mass spectrometer (Thermo Scientific, Waltham, MA, USA). BrP-LPA and lipid (LPA, LPC) extraction from plasma was performed on ice according to the Folch method with minor modifications. Plasma samples (50 ul) were mixed with 950 ul PBS prior to extraction and spiked with the internal standard mix (17:1 LPA/LPC). Samples were extracted under neutral conditions with 4 ml of ice-cold CHCl3/CH3OH (2/1, v/v) followed by 2 ml of PBS-saturated ice-cold CHCl3/CH3OH (2/1, v/v). Each extraction step was followed by a 60 s vortex and a 1 min centrifugation step in a bench-top clinical centrifuge in a cold room at 4°C at 3,000 rpm. The lower chloroform organic phases from both neutral extraction steps were pooled and kept for LPC measurement. […] The precursor ion mass was used for the quantification while lipid identity was confirmed by precursor ion fragmentation using collision induced dissociation (CID). […]
BrP-LPA was administered intraperitoneally (IP) at 10 mg/kg in water to 6–8 week old female mice. […] Plasma samples were then analysed for plasma ATX activity and BrP-LPA/LPA/LPC levels with the TOOS activity assay and HPLC-MS/MS respectively. […]

Compound: CCCCCCCCCCCCCCCC(=O)OC[C@@H](O)CC(Br)P(=O)(O)O (stereo partly drawn) [BrP-LPA, 1-bromo-3(S)-hydroxy-4-(palmitoyloxy)butyl-phosphonate]
- tmax: one and 1 h
